Drawing on publication PMC7862700, this text covers binding signal for 39 sequences.

The entries are a selection whose mix differs from that of the whole data set. At the low end of the ranking the order means little.

This assay has as its target SPI1 (UniProt P17947). As to the kind of experiment: DAPPL (digital affinity profiling via proximity ligation, sequencing). The following applies: 10 mM Tris-HCl pH 7.5, 50 mM NaCl, 1 mM DTT, 4% glycerol, room temperature, 30 min; GST-TFs on glutathione beads, 16-mer random dsDNA library, 0.1% …; high values mean tight binding; double strand, one strand shown; scale: fold enrichment (6-mer frequency, TF over GST control).
AGGGTT displayed a binding signal of 0.988.
Then TACCTT, with 1.33.
CATAGT had a binding signal of 0.901.
For TGTTGC the value was 1.33.
Then CGACGC, with 1.06; and CGCGCA, with 0.912; and TGGTGG, with 0.909.
Then AGCCCA, with 0.943; and GGTTCT, with 0.93.
As for TAGAAT, the binding signal was found to be 1.15.
As for AGCTAG, the binding signal worked out at 1.08.
In turn, AACTCA returned a binding signal of 1.25.
Then GCAGAA, with 0.999; and GGCAAT, with 0.887; and CGACTG, with 1.04.
Then CCTAGG, with 0.929; and CATTGA, with 0.927; and TAATGG, with 1.28.
For AAGCAA the value was 0.985; for GCAATT, 1.23.
GACCCA yielded a binding signal of 0.851.
For GGATGG the value was 0.868; for TTTAAC, 1.19; for ACGCAC, 1.03.
CCACCC yielded a binding signal of 1.22.
Regarding GCTTAA, the binding signal came to 0.928.
AGAAAA showed a binding signal of 1.11.
Then GACTTG, with 0.8.
For CATTGG the value was 0.967; for CTGTGC, 1.02; for TAAACT, 1.15.
Then GTCATT, with 0.93; and TAACCG, with 0.976.
GATCTG gave a binding signal of 0.853.
For CACACC the value was 0.946.
Consider GAGAAT, for which the binding signal worked out at 0.721.
Regarding GCGTTG, the binding signal worked out at 0.93.
For ACACGG the value was 0.971; for TGCGGT, 0.967.
